Source: PubChem BioAssay AID540256 (National Center for Advancing Translational Sciences (NCATS), 2011)
Values joined by “and” are separate entries in the source; they are usually repeats but may differ in a detail not shown here. Identical values can stand only once. The campaign covered roughly 300,000 compounds. About 3,700 (1.2%) were called active. This list was built around the results that the source calls inconclusive (neither active nor inactive); the mix of calls is not that of the screen. The call rests on the fitted dose curve; tested in HEK293 cells. A potency beside an inconclusive call is a rough fit, not a confirmed value.

Assay: qHTS for Inhibitors of binding or entry into cells for Lassa Virus; further: nearly all actives have a fitted effect of over 50% in size
Conditions: Lassa virus pseudotype entry inhibition, cell reporter; activity change, negative = inhibition: at 37.9 µM (top of the series) unless noted
On the % scale 0 is the no-effect control and ±100 the full control effect; potency means the concentration at half of the fitted maximal effect.

| Structure (SMILES) | Potency | activity change, negative = inhibition |
| --- | --- | --- |
| CC(=O)Nc1ccccc1C(=O)C(=O)NCCc1ccccc1 | inconclusive: 1.26 µM [inhibitor, partial curve, poor fit] | – |
| Cc1cc(OCC(=O)Nc2ccc(C(=O)OC3CCCCC3)cc2)ccc1Cl | – | inactive: 2.2% [at 46.1 µM] |
| Brc1ccc(-c2noc(CCc3ccccc3)n2)cc1 | – | inactive: 28.3% |
| CCN(CC)c1ccc(C2Nc3cccc4cccc(c34)N2)cc1 | – | inactive: 4.18% [at 46.1 µM] |
| Cc1cccc(NC(=O)Nc2ccc(C)c(C)c2)n1 | inactive and inconclusive: 1.12 µM [activator, full curve, poor fit] | – |
| Cc1cc(C(=O)CCl)c(C)n1-c1cccc([N+](=O)[O-])c1 | inconclusive: 25.1 µM [inhibitor, single point] | – |
| CC(=O)Nc1ccc(S(=O)(=O)N2CCN(c3ccc(C)c(C)c3)CC2)cc1 | – | inactive: 2.64% [at 46.1 µM] |
| O=c1[nH]c2ccc(Cl)cc2c(-c2ccccc2)c1N1CCN(c2ccccn2)CC1 | inconclusive: 5.17 µM [inhibitor, single point] | – |
| Cc1cc(N2CCN(C)CC2)nc2ccc(NC(=O)c3ccccc3F)cc12 | inconclusive: 3.55 µM [activator, partial curve, poor fit] | – |
| CCc1ccc(OC(=O)c2cncc(Br)c2)cc1 | inconclusive: 0.631 µM [activator, single point] | – |
| O=C1c2ccccc2C(O)(c2ncc[nH]2)N1CCc1ccccc1 (centres undefined) | inconclusive: 0.58 µM [inhibitor, full curve, poor fit] | – |
| O=S(=O)(NCc1ccccc1)c1ccccc1NCCc1ccccc1 | inconclusive: 25 µM [activator, partial curve, poor fit] | – |
| Cc1ccc(S(=O)(=O)N2CCCOC2CNC(=O)C(=O)NCc2cccs2)cc1 (centres undefined) | inconclusive: 35.5 µM [inhibitor, single point] | – |
| N#C/C(=C\c1ccc(F)cc1)c1n[nH]c(Cn2cncn2)n1 | inconclusive: 1.26 µM [inhibitor, single point] | – |
| Cc1[nH]c2ccccc2c1C(=O)CN1CC=C(c2ccccc2)CC1 | inconclusive: 32.6 µM [inhibitor, single point] | – |
| CC(=O)N1CCCc2cc(S(=O)(=O)CCC(=O)Nc3cccc(C)c3C)ccc21 | inconclusive: 1 µM [inhibitor, full curve, poor fit] | – |
| Cc1ccc(NC(=O)NC2CCCCC2)cc1Cl | inconclusive: 14.6 µM [inhibitor, partial curve, poor fit] | – |
| COc1cc2c(cc1OC)CN(Cc1cc(OC)c(O)c(OC)c1)CC2 | – | inactive: 11.5% [at 46.1 µM] |
| O=C(/C=C/c1ccc(Cl)cc1Cl)n1cccn1 | inconclusive: 20 µM [inhibitor, partial curve, poor fit] | – |
